Test results: article doi:10.1101/560391 (bioRxiv, 2019)
Like-named read-outs stand apart in the source and are kept apart here. No constants are given. Whether binding was seen depends on the method and setting. Some binding calls cover weakened binding; strength is not graded here. For some of these results: Where a sequence is shown, tags or fusion partners need not be part of it.

Sequences of proteins named here, by UniProt entry; tags and fusion partners are left off. A change or cut given only in a name is not applied to a line headed by its entry.
UniProt Q9V6Q2, whole entry: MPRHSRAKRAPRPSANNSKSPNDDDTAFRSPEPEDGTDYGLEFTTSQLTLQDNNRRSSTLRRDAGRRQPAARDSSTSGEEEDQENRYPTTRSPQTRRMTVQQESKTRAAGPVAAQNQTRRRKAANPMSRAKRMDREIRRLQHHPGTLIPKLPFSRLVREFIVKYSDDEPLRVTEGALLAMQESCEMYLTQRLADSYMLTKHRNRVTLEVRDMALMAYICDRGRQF

T1: GFP-LacI-dCENP-C (Drosophila) (UniProt Q9VHP9)
T1 sequence: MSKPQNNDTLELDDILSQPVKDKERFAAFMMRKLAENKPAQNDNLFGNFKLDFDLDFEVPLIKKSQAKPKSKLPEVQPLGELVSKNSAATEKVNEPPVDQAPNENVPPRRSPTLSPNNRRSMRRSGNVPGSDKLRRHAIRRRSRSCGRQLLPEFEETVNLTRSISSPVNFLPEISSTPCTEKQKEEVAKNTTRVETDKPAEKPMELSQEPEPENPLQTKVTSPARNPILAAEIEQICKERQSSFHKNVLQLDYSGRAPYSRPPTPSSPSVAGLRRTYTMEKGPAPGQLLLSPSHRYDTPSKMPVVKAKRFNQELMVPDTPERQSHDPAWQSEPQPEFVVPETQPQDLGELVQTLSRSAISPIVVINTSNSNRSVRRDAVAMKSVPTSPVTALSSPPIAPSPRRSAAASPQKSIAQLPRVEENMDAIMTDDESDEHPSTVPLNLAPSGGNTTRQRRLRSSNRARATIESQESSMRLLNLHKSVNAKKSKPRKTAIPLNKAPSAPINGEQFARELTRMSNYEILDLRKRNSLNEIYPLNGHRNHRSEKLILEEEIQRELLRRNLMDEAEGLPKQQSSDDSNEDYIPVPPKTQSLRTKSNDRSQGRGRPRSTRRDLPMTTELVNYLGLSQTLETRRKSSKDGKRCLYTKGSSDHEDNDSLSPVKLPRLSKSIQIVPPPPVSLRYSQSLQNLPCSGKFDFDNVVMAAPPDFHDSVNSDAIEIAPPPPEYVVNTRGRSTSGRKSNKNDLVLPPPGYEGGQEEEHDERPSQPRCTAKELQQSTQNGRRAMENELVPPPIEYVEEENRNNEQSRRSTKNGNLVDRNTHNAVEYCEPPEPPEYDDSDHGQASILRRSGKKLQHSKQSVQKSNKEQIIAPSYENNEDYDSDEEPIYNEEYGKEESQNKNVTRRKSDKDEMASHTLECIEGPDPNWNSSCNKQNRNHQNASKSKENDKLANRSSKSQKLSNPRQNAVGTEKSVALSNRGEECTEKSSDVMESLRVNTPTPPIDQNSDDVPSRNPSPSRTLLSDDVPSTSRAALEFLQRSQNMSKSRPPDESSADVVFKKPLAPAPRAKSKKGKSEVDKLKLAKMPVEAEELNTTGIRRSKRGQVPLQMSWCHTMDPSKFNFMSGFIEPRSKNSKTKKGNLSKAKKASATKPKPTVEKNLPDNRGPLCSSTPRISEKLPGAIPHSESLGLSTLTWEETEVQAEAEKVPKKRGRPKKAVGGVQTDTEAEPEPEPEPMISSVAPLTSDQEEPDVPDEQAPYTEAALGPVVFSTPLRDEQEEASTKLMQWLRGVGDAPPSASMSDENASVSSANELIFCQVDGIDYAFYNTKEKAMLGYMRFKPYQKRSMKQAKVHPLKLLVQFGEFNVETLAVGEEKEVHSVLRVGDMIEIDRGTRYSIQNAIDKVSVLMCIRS

T2: GFP-LacI-dCENP-C(1009-1411) (Drosophila) (UniProt Q9VHP9)
T2 sequence: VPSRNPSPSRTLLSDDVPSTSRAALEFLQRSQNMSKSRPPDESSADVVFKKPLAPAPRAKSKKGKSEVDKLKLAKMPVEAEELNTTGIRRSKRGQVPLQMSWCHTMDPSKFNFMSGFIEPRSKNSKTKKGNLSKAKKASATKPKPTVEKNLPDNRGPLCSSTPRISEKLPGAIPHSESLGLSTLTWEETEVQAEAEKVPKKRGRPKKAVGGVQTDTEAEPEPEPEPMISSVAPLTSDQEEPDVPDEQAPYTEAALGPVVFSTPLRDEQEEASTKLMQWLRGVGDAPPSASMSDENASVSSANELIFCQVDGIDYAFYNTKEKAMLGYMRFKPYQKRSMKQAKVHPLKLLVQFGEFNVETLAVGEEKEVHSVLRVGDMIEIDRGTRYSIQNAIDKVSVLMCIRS


Tests used:
Assay in all cases: LacI/LacO tethering and co-recruitment in cells
[1] = target: CAL1-GFP-LacI (Drosophila) (UniProt Q9VEN2)
[2] = target: dCENP-A-GFP-LacI (Drosophila) (UniProt Q9V6Q2)
[3] = target: T1, GFP-LacI-dCENP-C (Drosophila)
[4] = target: T2, GFP-LacI-dCENP-C(1009-1411) (Drosophila)
[5] = target: T1, GFP-LacI-dCENP-C (Drosophila); remark: listed apart in the source
[6] = target: CAL1-GFP-LacI (Drosophila) (UniProt Q9VEN2); remark: listed apart in the source

Row | Molecule | binding [1] | binding [5] | also measured
1 | CAL1(1-160)-HA (from UniProt Q9VEN2 1-160) (domain or fragment) | no binding | – | binding [2]: binds
2 | CAL1(1-407)-HA (from UniProt Q9VEN2 1-407) (domain or fragment) | binds | – | –
3 | CAL1(101-407)-HA (from UniProt Q9VEN2 101-407) (domain or fragment) | binds | – | –
4 | CAL1(392-722)-HA (from UniProt Q9VEN2 392-722) (domain or fragment) | no binding | – | –
5 | CAL1(699-979)-HA (from UniProt Q9VEN2 699-979) (domain or fragment) | no binding | – | binding [3]: binds; binding [4]: binds
6 | dCENP-A-HA (from UniProt Q9V6Q2 1-225) | – | – | binding [3]: binds weakly
7 | dCENP-A-V5 (from UniProt Q9V6Q2 1-225) | binds | – | –
8 | HA-tagged dCENP-C(1009-1411) (domain or fragment, UniProt Q9VHP9 1009-1411) VPSRNPSPSRTLLSDDVPSTSRAALEFLQRSQNMSKSRPPDESSADVVFKKPLAPAPRAKSKKGKSEVDKLKLAKMPVEAEELNTTGIRRSKRGQVPLQMSWCHTMDPSKFNFMSGFIEPRSKNSKTKKGNLSKAKKASATKPKPTVEKNLPDNRGPLCSSTPRISEKLPGAIPHSESLGLSTLTWEETEVQAEAEKVPKKRGRPKKAVGGVQTDTEAEPEPEPEPMISSVAPLTSDQEEPDVPDEQAPYTEAALGPVVFSTPLRDEQEEASTKLMQWLRGVGDAPPSASMSDENASVSSANELIFCQVDGIDYAFYNTKEKAMLGYMRFKPYQKRSMKQAKVHPLKLLVQFGEFNVETLAVGEEKEVHSVLRVGDMIEIDRGTRYSIQNAIDKVSVLMCIRS | – | binds | –
9 | HA-tagged dCENP-C(1263-1411) (domain or fragment, UniProt Q9VHP9 1263-1411) LGPVVFSTPLRDEQEEASTKLMQWLRGVGDAPPSASMSDENASVSSANELIFCQVDGIDYAFYNTKEKAMLGYMRFKPYQKRSMKQAKVHPLKLLVQFGEFNVETLAVGEEKEVHSVLRVGDMIEIDRGTRYSIQNAIDKVSVLMCIRS | – | binds | binding [6]: binds
10 | HA-tagged full length dCENP-C L1357E L1406E (protein, UniProt Q9VHP9 1-1411) MSKPQNNDTLELDDILSQPVKDKERFAAFMMRKLAENKPAQNDNLFGNFKLDFDLDFEVPLIKKSQAKPKSKLPEVQPLGELVSKNSAATEKVNEPPVDQAPNENVPPRRSPTLSPNNRRSMRRSGNVPGSDKLRRHAIRRRSRSCGRQLLPEFEETVNLTRSISSPVNFLPEISSTPCTEKQKEEVAKNTTRVETDKPAEKPMELSQEPEPENPLQTKVTSPARNPILAAEIEQICKERQSSFHKNVLQLDYSGRAPYSRPPTPSSPSVAGLRRTYTMEKGPAPGQLLLSPSHRYDTPSKMPVVKAKRFNQELMVPDTPERQSHDPAWQSEPQPEFVVPETQPQDLGELVQTLSRSAISPIVVINTSNSNRSVRRDAVAMKSVPTSPVTALSSPPIAPSPRRSAAASPQKSIAQLPRVEENMDAIMTDDESDEHPSTVPLNLAPSGGNTTRQRRLRSSNRARATIESQESSMRLLNLHKSVNAKKSKPRKTAIPLNKAPSAPINGEQFARELTRMSNYEILDLRKRNSLNEIYPLNGHRNHRSEKLILEEEIQRELLRRNLMDEAEGLPKQQSSDDSNEDYIPVPPKTQSLRTKSNDRSQGRGRPRSTRRDLPMTTELVNYLGLSQTLETRRKSSKDGKRCLYTKGSSDHEDNDSLSPVKLPRLSKSIQIVPPPPVSLRYSQSLQNLPCSGKFDFDNVVMAAPPDFHDSVNSDAIEIAPPPPEYVVNTRGRSTSGRKSNKNDLVLPPPGYEGGQEEEHDERPSQPRCTAKELQQSTQNGRRAMENELVPPPIEYVEEENRNNEQSRRSTKNGNLVDRNTHNAVEYCEPPEPPEYDDSDHGQASILRRSGKKLQHSKQSVQKSNKEQIIAPSYENNEDYDSDEEPIYNEEYGKEESQNKNVTRRKSDKDEMASHTLECIEGPDPNWNSSCNKQNRNHQNASKSKENDKLANRSSKSQKLSNPRQNAVGTEKSVALSNRGEECTEKSSDVMESLRVNTPTPPIDQNSDDVPSRNPSPSRTLLSDDVPSTSRAALEFLQRSQNMSKSRPPDESSADVVFKKPLAPAPRAKSKKGKSEVDKLKLAKMPVEAEELNTTGIRRSKRGQVPLQMSWCHTMDPSKFNFMSGFIEPRSKNSKTKKGNLSKAKKASATKPKPTVEKNLPDNRGPLCSSTPRISEKLPGAIPHSESLGLSTLTWEETEVQAEAEKVPKKRGRPKKAVGGVQTDTEAEPEPEPEPMISSVAPLTSDQEEPDVPDEQAPYTEAALGPVVFSTPLRDEQEEASTKLMQWLRGVGDAPPSASMSDENASVSSANELIFCQVDGIDYAFYNTKEKAMLGYMRFKPYQKRSMKQAKVHPLKLEVQFGEFNVETLAVGEEKEVHSVLRVGDMIEIDRGTRYSIQNAIDKVSVEMCIRS | – | no binding | binding [6]: no binding
11 | HA-tagged dCENP-C(1263-1411) L1357E L1406E (domain or fragment, UniProt Q9VHP9 1263-1411) LGPVVFSTPLRDEQEEASTKLMQWLRGVGDAPPSASMSDENASVSSANELIFCQVDGIDYAFYNTKEKAMLGYMRFKPYQKRSMKQAKVHPLKLEVQFGEFNVETLAVGEEKEVHSVLRVGDMIEIDRGTRYSIQNAIDKVSVEMCIRS | – | no binding | –
